Publication PMC2908686
Like-named read-outs stand apart in the source and are kept apart here. No constants are given. Whether binding was seen depends on the method and setting. Binding seen in cells or lysates may run through a third protein. Some results given as binding are weak or reduced against the parent protein; the word gives no strength. For some of these results: Sequences can lack the tags named with a protein.

Sequences of proteins named here, by UniProt entry; tags and fusion partners are left off.
UniProt Q9UNE7: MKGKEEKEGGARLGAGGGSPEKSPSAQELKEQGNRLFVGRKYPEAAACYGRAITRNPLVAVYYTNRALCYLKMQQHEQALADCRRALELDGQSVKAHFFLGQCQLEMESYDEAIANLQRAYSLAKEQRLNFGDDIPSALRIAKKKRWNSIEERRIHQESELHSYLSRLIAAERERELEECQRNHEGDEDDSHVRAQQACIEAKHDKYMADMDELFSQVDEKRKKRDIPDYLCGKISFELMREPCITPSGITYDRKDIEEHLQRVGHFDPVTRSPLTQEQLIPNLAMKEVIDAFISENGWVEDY
UniProt Q08752: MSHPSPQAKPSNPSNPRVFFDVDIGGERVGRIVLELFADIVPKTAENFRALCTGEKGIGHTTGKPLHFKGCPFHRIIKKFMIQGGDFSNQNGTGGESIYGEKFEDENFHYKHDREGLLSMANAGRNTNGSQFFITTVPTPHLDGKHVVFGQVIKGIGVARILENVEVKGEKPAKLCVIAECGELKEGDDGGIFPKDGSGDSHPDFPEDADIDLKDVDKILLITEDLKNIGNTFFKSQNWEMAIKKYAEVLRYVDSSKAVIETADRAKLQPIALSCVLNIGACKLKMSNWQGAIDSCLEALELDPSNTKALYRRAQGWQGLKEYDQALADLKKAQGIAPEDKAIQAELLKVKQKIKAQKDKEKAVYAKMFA
UniProt P04150: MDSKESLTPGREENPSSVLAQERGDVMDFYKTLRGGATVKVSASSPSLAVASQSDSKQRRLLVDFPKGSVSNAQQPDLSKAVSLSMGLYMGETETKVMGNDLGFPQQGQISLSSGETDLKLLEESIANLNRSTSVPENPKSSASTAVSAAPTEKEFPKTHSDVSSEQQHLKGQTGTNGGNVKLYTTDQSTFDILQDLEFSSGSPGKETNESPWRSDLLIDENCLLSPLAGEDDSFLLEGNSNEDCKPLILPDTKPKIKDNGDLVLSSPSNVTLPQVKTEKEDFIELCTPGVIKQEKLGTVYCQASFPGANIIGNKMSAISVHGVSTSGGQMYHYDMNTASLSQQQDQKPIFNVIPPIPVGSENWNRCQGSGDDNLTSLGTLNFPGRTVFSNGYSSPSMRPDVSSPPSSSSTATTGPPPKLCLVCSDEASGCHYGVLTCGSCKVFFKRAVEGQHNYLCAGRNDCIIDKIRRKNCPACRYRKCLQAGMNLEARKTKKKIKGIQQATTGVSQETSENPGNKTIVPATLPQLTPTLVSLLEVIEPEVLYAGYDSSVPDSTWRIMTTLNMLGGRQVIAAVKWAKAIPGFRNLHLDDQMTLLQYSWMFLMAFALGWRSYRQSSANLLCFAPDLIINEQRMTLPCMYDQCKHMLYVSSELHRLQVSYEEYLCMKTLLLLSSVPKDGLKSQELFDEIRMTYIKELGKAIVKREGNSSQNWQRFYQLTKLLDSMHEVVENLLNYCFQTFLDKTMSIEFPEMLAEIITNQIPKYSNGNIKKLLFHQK
UniProt P08235: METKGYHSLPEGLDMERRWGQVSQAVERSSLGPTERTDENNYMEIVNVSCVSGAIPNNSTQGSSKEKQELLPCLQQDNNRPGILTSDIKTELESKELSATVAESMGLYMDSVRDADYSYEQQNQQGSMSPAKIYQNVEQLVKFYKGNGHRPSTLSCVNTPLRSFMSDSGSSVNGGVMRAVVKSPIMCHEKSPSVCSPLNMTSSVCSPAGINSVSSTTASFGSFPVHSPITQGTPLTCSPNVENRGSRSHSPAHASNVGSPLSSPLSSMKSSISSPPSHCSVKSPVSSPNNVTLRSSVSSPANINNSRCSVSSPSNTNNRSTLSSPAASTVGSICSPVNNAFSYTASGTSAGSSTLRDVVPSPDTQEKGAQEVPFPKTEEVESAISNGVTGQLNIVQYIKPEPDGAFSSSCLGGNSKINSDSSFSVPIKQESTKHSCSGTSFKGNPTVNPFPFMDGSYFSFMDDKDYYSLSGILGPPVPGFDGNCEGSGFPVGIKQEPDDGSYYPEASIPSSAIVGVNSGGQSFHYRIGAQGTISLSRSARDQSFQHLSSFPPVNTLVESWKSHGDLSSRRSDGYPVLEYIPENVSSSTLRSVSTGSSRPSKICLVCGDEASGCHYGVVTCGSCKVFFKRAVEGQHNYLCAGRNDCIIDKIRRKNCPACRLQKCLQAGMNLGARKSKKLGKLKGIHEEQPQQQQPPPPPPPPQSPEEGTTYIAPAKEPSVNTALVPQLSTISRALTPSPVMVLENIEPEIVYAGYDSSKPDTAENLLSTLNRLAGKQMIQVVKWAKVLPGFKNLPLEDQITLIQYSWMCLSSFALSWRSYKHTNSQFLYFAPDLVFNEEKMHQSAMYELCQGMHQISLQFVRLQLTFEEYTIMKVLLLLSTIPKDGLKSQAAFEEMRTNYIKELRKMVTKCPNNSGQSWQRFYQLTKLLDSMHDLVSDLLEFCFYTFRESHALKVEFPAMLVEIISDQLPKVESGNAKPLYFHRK
UniProt P06401: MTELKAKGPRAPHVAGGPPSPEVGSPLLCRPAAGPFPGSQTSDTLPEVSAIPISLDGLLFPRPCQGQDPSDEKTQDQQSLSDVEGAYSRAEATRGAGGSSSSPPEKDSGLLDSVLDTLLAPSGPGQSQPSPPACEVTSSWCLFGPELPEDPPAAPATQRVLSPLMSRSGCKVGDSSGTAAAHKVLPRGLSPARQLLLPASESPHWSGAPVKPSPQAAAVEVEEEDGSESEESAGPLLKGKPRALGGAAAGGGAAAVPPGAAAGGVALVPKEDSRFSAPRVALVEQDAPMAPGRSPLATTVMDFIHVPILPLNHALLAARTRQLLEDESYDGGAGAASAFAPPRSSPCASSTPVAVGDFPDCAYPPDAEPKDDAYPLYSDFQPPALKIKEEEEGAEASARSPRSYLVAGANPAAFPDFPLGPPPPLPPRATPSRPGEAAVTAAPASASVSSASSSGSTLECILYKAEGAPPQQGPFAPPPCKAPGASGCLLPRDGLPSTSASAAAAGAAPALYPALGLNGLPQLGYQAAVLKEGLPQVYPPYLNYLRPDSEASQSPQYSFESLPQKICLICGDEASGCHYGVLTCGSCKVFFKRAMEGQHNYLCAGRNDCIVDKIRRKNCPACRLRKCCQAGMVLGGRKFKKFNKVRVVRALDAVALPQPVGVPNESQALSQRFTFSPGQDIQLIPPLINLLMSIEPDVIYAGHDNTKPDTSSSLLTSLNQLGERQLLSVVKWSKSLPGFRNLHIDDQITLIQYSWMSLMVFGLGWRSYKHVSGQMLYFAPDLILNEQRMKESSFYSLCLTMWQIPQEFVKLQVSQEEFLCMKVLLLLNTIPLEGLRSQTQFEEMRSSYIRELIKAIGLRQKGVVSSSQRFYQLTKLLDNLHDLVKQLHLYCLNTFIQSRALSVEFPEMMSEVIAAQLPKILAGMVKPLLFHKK
UniProt P10275: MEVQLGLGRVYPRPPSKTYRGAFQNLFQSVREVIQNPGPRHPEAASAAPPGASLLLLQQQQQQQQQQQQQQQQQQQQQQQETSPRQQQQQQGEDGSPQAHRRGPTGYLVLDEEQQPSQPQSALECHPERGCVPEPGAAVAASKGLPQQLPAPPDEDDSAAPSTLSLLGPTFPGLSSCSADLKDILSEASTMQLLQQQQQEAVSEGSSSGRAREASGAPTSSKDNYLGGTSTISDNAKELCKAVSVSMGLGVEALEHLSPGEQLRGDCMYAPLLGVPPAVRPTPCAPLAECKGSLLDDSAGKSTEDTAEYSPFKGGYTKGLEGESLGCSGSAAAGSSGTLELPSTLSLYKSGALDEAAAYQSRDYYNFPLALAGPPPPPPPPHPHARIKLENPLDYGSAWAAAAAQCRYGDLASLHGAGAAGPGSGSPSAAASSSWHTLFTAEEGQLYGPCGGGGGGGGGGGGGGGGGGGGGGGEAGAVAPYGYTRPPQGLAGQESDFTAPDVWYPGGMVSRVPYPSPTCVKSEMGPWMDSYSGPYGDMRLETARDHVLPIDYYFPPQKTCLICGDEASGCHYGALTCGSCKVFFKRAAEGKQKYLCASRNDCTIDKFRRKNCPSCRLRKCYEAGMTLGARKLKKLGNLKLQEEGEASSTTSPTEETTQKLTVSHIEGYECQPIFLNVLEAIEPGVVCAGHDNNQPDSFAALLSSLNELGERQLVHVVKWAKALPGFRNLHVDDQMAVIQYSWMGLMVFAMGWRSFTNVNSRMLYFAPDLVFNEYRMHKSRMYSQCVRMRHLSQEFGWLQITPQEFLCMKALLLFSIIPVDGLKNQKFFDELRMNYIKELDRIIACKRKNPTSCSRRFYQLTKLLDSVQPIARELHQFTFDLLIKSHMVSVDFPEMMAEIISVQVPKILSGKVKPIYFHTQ

T1: FK506 binding protein 51 (FKBP51), C-terminal FLAG fusion (UniProt Q13451)
T1 sequence: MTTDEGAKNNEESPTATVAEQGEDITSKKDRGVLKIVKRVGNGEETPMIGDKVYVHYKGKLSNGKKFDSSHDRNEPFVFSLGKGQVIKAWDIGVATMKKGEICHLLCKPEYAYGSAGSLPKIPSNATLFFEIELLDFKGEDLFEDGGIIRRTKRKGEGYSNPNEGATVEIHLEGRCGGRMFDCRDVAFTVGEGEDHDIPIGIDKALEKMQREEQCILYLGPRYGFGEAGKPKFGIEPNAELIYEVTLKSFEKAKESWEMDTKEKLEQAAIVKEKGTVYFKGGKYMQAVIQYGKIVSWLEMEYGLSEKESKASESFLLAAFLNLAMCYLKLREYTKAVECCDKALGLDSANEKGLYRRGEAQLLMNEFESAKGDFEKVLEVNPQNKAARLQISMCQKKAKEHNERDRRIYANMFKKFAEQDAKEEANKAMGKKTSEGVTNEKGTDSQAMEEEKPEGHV

T2: protein phosphatase 5 (PP5), C-terminal FLAG fusion (UniProt P53041)
T2 sequence: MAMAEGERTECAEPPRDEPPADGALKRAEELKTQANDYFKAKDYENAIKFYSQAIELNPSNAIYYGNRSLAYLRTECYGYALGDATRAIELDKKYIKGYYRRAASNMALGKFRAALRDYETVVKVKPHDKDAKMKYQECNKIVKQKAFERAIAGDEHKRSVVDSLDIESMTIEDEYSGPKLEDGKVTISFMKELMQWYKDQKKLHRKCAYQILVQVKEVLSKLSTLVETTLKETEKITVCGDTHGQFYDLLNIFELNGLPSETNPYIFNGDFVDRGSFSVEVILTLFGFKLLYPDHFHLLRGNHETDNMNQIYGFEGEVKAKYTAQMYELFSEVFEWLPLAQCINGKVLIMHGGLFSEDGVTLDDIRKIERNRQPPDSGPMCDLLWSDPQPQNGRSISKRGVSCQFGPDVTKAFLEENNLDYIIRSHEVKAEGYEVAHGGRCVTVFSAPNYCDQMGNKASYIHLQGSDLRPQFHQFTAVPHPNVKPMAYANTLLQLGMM

T3: tetratricopeptide repeat protein 2 (TPR2), C-terminal FLAG fusion (UniProt Q99615)
T3 sequence: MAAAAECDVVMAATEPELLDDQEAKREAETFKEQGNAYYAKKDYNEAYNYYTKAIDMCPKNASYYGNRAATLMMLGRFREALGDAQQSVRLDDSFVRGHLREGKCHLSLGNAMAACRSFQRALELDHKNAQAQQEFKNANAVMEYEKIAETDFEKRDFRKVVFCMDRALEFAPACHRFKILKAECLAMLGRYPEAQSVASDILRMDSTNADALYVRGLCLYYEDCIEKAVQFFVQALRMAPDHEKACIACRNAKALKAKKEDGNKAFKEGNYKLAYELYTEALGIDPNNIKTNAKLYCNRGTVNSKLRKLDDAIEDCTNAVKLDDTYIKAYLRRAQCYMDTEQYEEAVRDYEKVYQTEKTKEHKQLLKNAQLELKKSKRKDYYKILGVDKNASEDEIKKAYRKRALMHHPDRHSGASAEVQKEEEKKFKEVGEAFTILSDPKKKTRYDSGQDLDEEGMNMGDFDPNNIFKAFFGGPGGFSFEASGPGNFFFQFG

B1: tetratricopeptide repeat protein 2 (TPR2), C-terminal FLAG fusion (protein, UniProt Q99615 1-494)
chain: T3 sequence
B2: protein phosphatase 5 (PP5), C-terminal FLAG fusion (enzyme, UniProt P53041 1-499)
chain: T2 sequence
B3: hepatitis virus B X-associated protein 2 (XAP2), C-terminal FLAG fusion (protein, UniProt O00170 1-330)
chain: MADIIARLREDGIQKRVIQEGRGELPDFQDGTKATFHYRTLHSDDEGTVLDDSRARGKPMELIIGKKFKLPVWETIVCTMREGEIAQFLCDIKHVVLYPLVAKSLRNIAVGKDPLEGQRHCCGVAQMREHSSLGHADLDALQQNPQPLIFHMEMLKVESPGTYQQDPWAMTDEEKAKAVPLIHQEGNRLYREGHVKEAAAKYYDAIACLKNLQMKEQPGSPEWIQLDQQITPLLLNYCQCKLVVEEYYEVLDHCSSILNKYDDNVKAYFKRGKAHAAVWNAQEAQADFAKVLELDPALAPVVSRELRALEARIRQKDEEDKARFRGIFSH
B4: FK506 binding protein 51 (FKBP51), C-terminal FLAG fusion (protein, UniProt Q13451 1-457)
chain: T1 sequence

Experiments:
[1] = target: C-terminus of Hsp70 interacting protein (CHIP), C-terminal FLAG fusion (UniProt Q9UNE7); assay: co-IP; HEK-293 co-expressing an HA-tagged steroid receptor and a FLAG-tagged TPR protein, steroid-free serum; Lysis-Buffer A'; TPR protein precipitated on anti-FLAG M2 agarose overnight at 4°C, FLAG-peptide elution; co-precipitated receptor by HA immunoblot, densitometry
[2] = target: Cyclophillin-40 (Cyp40), C-terminal FLAG fusion (UniProt Q08752); assay: as above
[3] = target: T1, FK506 binding protein 51 (FKBP51), C-terminal FLAG fusion; assay: as above
[4] = target: T2, protein phosphatase 5 (PP5), C-terminal FLAG fusion; assay: as above
[5] = target: T3, tetratricopeptide repeat protein 2 (TPR2), C-terminal FLAG fusion; assay: as above
[6] = target: glucocorticoid receptor (GR), N-terminally HA-tagged (UniProt P04150); assay: co-IP; HEK-293 co-expressing an HA-tagged steroid receptor and a FLAG-tagged TPR protein, steroid-free serum; Lysis-Buffer A' (130 mM NaCl, 20 mM Na2MoO4, 20 mM Tris-HCl pH 7.5, 0.5% Triton X-100); receptor precipitated on anti-HA agarose overnight at 4°C, HA-peptide elution; co-precipitated TPR proteins by FLAG immunoblot, densitometry
[7] = target: mineralocorticoid receptor (MR), N-terminally HA-tagged (UniProt P08235); assay: as above
[8] = target: progesterone receptor (PR), N-terminally HA-tagged (UniProt P06401); assay: as above
[9] = target: androgen receptor (AR), N-terminally HA-tagged (UniProt P10275); assay: as above
[10] = target: glucocorticoid receptor (GR), N-terminally HA-tagged (UniProt P04150); assay: as above; remark: listed apart in the source
[11] = target: mineralocorticoid receptor (MR), N-terminally HA-tagged (UniProt P08235); assay: as above; remark: listed apart in the source
[12] = target: progesterone receptor (PR), N-terminally HA-tagged (UniProt P06401); assay: as above; remark: listed apart in the source

Row | Molecule | binding [9] | binding [10] | binding [11] | binding [12] | also measured
1 | glucocorticoid receptor (GR), N-terminally HA-tagged (from UniProt P04150 1-777) |  |  |  |  | binding [1]: binds; binding [2]: binds weakly; binding [3]: binds; binding [4]: binds; binding [5]: binds
2 | C-terminus of Hsp70 interacting protein (CHIP), C-terminal FLAG fusion (from UniProt Q9UNE7 1-303) |  |  |  |  | binding [6]: binds; binding [7]: binds; binding [8]: binds
3 | mineralocorticoid receptor (MR), N-terminally HA-tagged (from UniProt P08235 1-984) |  |  |  |  | binding [1]: binds; binding [2]: binds weakly; binding [3]: binds; binding [4]: binds; binding [5]: binds
4 | B1 | binds | binds | binds | binds | 
5 | B2 |  | binds | binds | binds weakly | 
6 | B3 | binds | binds | binds | binds weakly | 
7 | B4 | binds | binds | binds | binds | 
